The list shows a part of the results.
Legend:
Assay in all cases: log2 fold change, soluble protein after heating vs DMSO (PISA); higher = thermal stabilisation; K562 lysate, 10 uM; active = over 0.2 and 3.5 SD of the protein, either way, in both replicates (recomputed)
[1] = compound: CS(=O)(=O)CCNCc1ccc(-c2ccc3ncnc(Nc4ccc(OCc5cccc(F)c5)c(Cl)c4)c3c2)o1 [lapatinib]
In short: (§1)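 Quantification was by TMTpro 16plex LC-MS/MS with equalised channel sums, applied to the supernatant after 21,000xg for 90 min. Samples were crude K562 extract at 1 mg/mL protein in PBS pH 7.4 with 1 mM MgCl2, treated with 10 μM compound for 30 min, heated for 3 min across 48°C-58°C, pooled and brought to 0.5% NP-40 at 4°C. Values are log-two fold changes in thermal stability relative to solvent controls, from duplicates.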

Amino acid sequences for entries named in this document (tags omitted). A change or cut given only in a name is not applied to a line headed by its entry.
UniProt O15031: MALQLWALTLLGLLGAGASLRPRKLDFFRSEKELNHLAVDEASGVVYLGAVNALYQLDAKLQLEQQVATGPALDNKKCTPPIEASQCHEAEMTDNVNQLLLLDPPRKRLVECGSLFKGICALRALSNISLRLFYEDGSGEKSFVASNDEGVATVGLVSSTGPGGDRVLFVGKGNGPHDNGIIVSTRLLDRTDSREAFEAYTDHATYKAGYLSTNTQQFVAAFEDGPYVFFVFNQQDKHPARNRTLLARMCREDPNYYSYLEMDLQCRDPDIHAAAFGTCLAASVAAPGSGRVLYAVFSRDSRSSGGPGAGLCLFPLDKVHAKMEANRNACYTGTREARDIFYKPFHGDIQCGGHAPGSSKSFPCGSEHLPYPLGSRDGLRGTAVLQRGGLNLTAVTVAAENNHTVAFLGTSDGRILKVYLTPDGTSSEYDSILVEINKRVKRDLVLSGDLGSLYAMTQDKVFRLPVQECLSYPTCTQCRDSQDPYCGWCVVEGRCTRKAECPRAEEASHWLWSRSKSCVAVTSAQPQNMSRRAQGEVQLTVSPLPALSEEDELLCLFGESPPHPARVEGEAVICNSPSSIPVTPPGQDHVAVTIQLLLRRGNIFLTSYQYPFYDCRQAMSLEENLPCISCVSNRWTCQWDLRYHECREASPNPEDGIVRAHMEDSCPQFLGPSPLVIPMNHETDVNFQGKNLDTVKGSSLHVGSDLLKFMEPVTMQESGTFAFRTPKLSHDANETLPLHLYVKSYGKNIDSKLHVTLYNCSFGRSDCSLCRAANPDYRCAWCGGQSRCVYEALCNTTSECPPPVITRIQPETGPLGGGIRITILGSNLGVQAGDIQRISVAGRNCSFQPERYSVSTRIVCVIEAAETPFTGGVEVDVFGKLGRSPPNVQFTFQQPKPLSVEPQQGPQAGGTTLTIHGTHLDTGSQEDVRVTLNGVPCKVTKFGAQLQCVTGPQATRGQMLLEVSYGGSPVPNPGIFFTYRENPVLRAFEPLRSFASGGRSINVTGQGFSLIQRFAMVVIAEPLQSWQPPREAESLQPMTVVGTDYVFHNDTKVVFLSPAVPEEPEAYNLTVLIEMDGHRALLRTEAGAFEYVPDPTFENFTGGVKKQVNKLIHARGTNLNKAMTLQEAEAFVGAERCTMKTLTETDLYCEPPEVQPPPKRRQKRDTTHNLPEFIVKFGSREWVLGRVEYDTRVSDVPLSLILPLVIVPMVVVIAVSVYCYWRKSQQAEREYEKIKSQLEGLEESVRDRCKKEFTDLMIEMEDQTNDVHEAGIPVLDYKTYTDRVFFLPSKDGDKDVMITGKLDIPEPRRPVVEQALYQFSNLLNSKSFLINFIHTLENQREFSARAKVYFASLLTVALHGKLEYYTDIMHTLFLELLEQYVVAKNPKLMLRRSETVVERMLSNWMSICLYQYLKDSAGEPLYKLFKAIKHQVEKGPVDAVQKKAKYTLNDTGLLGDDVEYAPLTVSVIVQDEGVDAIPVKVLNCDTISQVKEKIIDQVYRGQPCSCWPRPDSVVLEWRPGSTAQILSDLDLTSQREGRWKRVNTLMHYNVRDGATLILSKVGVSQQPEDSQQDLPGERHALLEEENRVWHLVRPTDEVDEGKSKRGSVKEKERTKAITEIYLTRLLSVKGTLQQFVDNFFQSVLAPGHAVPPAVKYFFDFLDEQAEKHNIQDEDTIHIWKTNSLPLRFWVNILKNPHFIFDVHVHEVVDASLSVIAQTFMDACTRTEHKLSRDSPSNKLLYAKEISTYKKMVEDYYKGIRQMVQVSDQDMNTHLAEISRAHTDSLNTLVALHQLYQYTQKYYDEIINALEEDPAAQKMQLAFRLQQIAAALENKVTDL
UniProt Q9NVS9: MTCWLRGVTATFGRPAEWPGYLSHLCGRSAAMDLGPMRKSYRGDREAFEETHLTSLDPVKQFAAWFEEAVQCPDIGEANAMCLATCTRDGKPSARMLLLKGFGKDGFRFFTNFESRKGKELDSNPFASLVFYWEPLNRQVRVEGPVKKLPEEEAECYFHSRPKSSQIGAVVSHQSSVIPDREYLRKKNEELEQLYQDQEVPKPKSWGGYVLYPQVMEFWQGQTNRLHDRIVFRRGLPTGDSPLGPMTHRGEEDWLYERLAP
UniProt Q9Y244: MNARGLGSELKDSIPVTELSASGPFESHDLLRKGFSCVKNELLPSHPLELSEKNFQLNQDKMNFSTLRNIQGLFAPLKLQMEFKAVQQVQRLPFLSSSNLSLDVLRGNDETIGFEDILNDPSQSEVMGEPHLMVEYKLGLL
UniProt P16435: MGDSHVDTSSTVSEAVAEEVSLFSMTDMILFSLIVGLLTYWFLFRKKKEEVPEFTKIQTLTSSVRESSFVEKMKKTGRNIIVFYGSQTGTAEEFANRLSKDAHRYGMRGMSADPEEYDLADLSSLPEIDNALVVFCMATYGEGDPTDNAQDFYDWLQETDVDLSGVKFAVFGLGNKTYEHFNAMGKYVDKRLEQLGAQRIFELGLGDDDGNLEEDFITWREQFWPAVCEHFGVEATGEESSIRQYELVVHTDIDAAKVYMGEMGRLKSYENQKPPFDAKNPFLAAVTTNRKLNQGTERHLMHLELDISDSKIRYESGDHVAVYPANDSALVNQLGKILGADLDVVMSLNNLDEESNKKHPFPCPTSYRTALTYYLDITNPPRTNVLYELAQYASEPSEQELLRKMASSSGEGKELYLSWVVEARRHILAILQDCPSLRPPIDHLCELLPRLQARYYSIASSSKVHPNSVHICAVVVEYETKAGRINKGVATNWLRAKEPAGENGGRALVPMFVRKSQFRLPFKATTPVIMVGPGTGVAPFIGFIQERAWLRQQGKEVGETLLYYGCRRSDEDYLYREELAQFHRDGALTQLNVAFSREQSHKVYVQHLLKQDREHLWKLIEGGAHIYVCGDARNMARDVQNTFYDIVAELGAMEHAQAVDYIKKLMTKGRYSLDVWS
UniProt O95707: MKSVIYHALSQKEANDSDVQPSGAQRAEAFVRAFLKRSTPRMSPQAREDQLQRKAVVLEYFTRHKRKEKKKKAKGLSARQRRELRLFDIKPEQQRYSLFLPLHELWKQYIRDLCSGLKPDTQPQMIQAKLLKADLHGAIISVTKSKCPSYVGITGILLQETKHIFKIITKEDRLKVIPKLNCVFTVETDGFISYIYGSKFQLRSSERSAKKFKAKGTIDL
UniProt P13797: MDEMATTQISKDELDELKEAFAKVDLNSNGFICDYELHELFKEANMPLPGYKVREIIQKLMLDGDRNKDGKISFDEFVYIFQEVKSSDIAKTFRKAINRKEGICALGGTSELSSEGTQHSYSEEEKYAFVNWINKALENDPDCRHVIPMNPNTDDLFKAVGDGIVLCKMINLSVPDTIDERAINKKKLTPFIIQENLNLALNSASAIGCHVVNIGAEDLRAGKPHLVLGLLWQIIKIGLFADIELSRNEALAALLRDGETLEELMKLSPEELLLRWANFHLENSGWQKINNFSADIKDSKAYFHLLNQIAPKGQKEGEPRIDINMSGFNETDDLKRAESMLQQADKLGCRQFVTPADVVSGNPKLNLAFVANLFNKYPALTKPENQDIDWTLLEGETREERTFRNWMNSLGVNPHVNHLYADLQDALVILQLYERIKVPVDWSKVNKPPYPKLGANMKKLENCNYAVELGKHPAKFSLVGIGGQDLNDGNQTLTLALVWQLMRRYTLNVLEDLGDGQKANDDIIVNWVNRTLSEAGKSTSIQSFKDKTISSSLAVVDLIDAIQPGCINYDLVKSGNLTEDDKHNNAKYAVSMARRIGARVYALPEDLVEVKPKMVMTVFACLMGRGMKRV
UniProt O15162: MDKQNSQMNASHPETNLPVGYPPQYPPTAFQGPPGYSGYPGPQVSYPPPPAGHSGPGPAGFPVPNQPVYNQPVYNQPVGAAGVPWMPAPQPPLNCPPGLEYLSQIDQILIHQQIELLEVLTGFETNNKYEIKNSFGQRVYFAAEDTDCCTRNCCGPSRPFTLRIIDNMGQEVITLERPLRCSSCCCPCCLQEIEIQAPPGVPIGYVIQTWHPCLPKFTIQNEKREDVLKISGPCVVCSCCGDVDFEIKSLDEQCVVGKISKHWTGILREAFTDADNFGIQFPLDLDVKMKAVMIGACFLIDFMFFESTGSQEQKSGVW
UniProt O75439: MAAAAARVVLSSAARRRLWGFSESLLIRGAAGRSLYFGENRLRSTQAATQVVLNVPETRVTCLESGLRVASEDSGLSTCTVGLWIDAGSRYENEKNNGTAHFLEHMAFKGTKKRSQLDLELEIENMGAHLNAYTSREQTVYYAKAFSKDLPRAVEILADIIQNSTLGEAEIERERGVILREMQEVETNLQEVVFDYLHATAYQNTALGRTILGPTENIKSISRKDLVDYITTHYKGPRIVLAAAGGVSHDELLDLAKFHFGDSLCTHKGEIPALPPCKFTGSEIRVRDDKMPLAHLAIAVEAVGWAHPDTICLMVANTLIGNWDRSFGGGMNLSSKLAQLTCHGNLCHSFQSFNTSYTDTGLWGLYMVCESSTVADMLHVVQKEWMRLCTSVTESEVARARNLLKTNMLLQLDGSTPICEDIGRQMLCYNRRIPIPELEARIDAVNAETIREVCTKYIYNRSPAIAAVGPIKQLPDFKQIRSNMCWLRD
UniProt Q9NP80: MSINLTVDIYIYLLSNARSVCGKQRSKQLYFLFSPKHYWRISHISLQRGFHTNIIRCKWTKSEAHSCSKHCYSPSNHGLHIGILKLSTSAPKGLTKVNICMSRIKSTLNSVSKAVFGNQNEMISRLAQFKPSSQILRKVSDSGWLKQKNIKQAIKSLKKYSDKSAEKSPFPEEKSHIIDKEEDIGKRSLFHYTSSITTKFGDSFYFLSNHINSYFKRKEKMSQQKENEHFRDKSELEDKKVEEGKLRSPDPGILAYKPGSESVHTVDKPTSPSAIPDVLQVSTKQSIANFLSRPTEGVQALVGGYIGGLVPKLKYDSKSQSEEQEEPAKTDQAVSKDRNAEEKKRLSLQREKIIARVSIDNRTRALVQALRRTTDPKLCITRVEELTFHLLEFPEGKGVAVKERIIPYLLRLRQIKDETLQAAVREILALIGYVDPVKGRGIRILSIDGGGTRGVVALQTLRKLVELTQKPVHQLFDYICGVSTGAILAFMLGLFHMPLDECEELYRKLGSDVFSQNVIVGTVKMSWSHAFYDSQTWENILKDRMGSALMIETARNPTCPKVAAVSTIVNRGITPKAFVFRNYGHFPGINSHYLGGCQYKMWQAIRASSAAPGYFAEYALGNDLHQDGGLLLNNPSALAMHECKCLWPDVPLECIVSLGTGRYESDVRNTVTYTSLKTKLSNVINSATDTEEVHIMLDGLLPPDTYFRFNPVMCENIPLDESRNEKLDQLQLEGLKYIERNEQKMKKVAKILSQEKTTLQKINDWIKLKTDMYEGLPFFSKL
UniProt Q9Y2Y1: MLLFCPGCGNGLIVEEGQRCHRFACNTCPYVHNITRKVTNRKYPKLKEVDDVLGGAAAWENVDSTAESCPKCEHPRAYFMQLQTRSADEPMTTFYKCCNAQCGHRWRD
UniProt P11086: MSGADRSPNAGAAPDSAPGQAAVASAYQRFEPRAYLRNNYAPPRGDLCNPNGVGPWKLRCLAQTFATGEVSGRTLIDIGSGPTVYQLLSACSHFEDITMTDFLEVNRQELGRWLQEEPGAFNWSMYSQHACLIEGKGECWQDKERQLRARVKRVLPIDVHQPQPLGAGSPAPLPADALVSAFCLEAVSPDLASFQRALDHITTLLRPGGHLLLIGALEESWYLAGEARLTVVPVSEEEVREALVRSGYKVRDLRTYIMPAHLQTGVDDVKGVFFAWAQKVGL
UniProt Q15063: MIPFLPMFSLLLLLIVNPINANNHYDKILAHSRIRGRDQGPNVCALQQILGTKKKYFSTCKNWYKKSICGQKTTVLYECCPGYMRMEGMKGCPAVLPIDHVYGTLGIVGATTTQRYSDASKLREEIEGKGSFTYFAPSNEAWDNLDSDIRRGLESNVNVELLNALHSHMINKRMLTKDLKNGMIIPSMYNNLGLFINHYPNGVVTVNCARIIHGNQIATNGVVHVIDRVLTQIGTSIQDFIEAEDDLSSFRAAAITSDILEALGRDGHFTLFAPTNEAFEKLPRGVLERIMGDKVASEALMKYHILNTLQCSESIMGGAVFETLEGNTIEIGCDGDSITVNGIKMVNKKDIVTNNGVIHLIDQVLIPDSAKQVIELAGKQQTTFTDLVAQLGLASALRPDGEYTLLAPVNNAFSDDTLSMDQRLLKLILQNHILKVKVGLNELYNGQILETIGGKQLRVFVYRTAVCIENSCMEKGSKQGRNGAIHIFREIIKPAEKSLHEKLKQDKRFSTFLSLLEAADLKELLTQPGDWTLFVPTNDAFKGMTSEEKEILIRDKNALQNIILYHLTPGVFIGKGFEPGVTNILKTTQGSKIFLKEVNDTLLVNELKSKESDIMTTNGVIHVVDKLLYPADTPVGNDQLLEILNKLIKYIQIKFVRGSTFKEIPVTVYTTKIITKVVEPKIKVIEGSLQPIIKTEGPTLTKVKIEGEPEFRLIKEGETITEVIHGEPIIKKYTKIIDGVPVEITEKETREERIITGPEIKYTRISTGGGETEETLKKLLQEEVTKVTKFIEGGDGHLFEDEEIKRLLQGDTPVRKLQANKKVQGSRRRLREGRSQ

[2] = compound: CS(=O)(=O)N1CCN(Cc2cc3nc(-c4cccc5[nH]ncc45)nc(N4CCOCC4)c3s2)CC1 [pictilisib]
In short: as §1

[3] = compound: C[C@@H](Oc1cc(-c2cnn(C3CCNCC3)c2)cnc1N)c1c(Cl)ccc(F)c1Cl [crizotinib]
In short: as §1

[4] = compound: C[C@H](C1=CC=C(C=C1)C(=O)NC2=C3C=CNC3=NC=C2)N
In short: as §1

[5] = compound: C[C@H](Nc1ncnc2nc[nH]c12)c1cc2cccc(Cl)c2c(=O)n1-c1ccccc1 [duvelisib]
In short: as §1

[6] = compound: Cc1cc(Nc2cc(CN3CCOCC3)c3nc(C)c(Cc4ccc(Cl)cc4F)n3n2)n[nH]1 [gandotinib]
In short: as §1

[7] = compound: Cc1ccc(-n2nc(C(C)(C)C)cc2NC(=O)Nc2ccc(OCCN3CCOCC3)c3ccccc23)cc1 [doramapimod]
In short: as §1

[8] = compound: Cc1ccc(NC(=O)c2ccc(CN3CC[C@H](N(C)C)C3)c(C(F)(F)F)c2)cc1Nc1nccc(-c2cncnc2)n1 [bafetinib]
In short: as §1

[9] = compound: Cc1cccc(CC(=O)N2CCc3c2ccc(-c2cn(C)c4ncnc(N)c24)c3F)n1
In short: as §1

[10] = compound: Cc1cc(Nc2cc(N3CCN(C)CC3)nc(Sc3ccc(NC(=O)C4CC4)cc3)n2)n[nH]1 [tozasertib]
In short: as §1

Measured: log2 fold change

POLDIP3 (UniProt Q9BY77)
inactive: [1] 0.024 | [2] 0.027 | [3] -0.001 | [4] -0.209 | [5] -0.057 | [6] 0.199 | [7] 0.113 | [8] -0.033 | [9] 0.062

PLXNB2 (UniProt O15031)
inactive: [1] -0.033 | [2] -0.068 | [3] -0.014 | [4] -0.019 | [5] 0.031 | [6] -0.046 | [10] 0.027 | [7] -0.044 | [8] -0.004 | [9] 0.031

POLR1A (UniProt O95602)
inactive: [1] -0.012 | [2] -0.078 | [3] -0.048 | [4] -0.018 | [5] 0.022 | [6] -0.021 | [10] -0.022 | [7] 0.028 | [8] -0.027 | [9] 0.036

Copied from the results shown (2 entries):
POLDIP3 (UniProt Q9BY77)
inactive: [1] 0.024 | [2] 0.027 | [3] -0.001 | [4] -0.209 | [5] -0.057 | [6] 0.199 | [7] 0.113 | [8] -0.033 | [9] 0.062

PLXNB2 (UniProt O15031)
inactive: [1] -0.033 | [2] -0.068 | [3] -0.014 | [4] -0.019 | [5] 0.031 | [6] -0.046 | [10] 0.027 | [7] -0.044 | [8] -0.004 | [9] 0.031

Later entries:

PNPO (UniProt Q9NVS9)
inactive: [1] 0.018 | [2] -0.026 | [3] 0.009 | [4] 0.147 | [5] 0.029 | [6] -0.153 | [10] 0.076 | [7] -0.027 | [8] 0.053 | [9] -0.127

POLR2M (UniProt Q6EEV4)
inactive: [1] 0.047 | [2] -0.07 | [3] -0.064 | [4] 0.026 | [5] -0.049 | [6] -0.154 | [10] 0.055 | [7] -0.041 | [8] -0.116 | [9] 0.046

PMVK (UniProt Q15126)
inactive: [1] -0.093 | [2] -0.081 | [3] -0.047 | [4] -0.028 | [5] 0.018 | [6] -0.037 | [10] 0.107 | [7] 0.111 | [8] 0.001 | [9] 0.095

PLOD3 (UniProt O60568)
inactive: [1] -0.024 | [2] -0.023 | [3] 0.026 | [4] 0.003 | [5] -0.018 | [6] -0.018 | [10] 0.074 | [7] 0.021 | [8] 0.017 | [9] 0.006

POLR3F (UniProt Q9H1D9)
inactive: [1] 0.017 | [2] -0.014 | [3] 0.005 | [4] -0.005 | [5] 0.049 | [6] 0.004 | [10] 0.041 | [7] -0.001 | [8] -0.003 | [9] -0.036

POM121 (UniProt Q96HA1)
inactive: [1] -0.057 | [2] -0.094 | [3] 0.013 | [4] -0.062 | [5] 0.001 | [6] 0.077 | [10] 0.01 | [7] -0.058 | [8] 0.129 | [9] 0.049

PLXNA3 (UniProt P51805)
inactive: [1] -0.086 | [2] 0.011 | [3] -0.266 | [4] -0.413 | [6] 0.114 | [10] 0.096 | [7] -0.004 | [8] -0.211 | [9] 0.196

PPFIA3 (UniProt O75145)
inactive: [1] 0.087 | [2] -0.136 | [4] 0.104 | [5] 0.004 | [6] -0.034 | [8] 0.022 | [9] 0.005

POLR2L (UniProt P62875)
inactive: [1] 0.056 | [2] 0.081 | [3] -0.027 | [4] 0.117 | [5] -0.051 | [6] -0.105 | [10] -0.046 | [7] 0.037 | [8] -0.069 | [9] -0.028

POLR2I (UniProt P36954)
inactive: [1] 0.036 | [2] 0.006 | [3] 0.058 | [4] 0.05 | [5] 0.019 | [6] -0.034 | [7] 0.046 | [8] -0.127 | [9] -0.037

POMP (UniProt Q9Y244)
inactive: [1] 0.048 | [2] 0.031 | [3] -0.054 | [4] 0.221 | [5] 0.11 | [6] -0.063 | [10] 0.022 | [7] 0.038 | [8] 0.017 | [9] -0.038

POLR1D (UniProt P0DPB6)
inactive: [1] -0.001 | [2] -0.02 | [3] -0.06 | [4] -0.031 | [5] 0.025 | [6] -0.004 | [10] -0.063 | [7] -0.025 | [8] -0.082 | [9] -0.003

POFUT2 (UniProt Q9Y2G5)
inactive: [1] -0.015 | [2] 0.009 | [3] 0.026 | [4] 0.013 | [5] 0.012 | [6] 0.021 | [10] 0.03 | [7] -0.062 | [8] -0.017 | [9] 0.045

POR (UniProt P16435)
inactive: [1] -0.029 | [2] -0.005 | [3] 0.052 | [4] -0.007 | [5] 0.002 | [6] 0.029 | [10] -0.013 | [7] -0.031 | [8] 0.009 | [9] 0.021

POLR2H (UniProt P52434)
inactive: [1] -0.003 | [2] 0.027 | [3] -0.047 | [4] -0.067 | [5] 0.008 | [6] 0.027 | [10] -0.047 | [7] -0.015 | [8] 0.008 | [9] 0.049

POTEKP (UniProt Q9BYX7)
inactive: [1] -0.195 | [2] -0.122 | [3] -0.113 | [5] 0.812 | [7] 1.05 | [8] 0.613

POP4 (UniProt O95707)
inactive: [1] 0.004 | [2] 0.02 | [3] 0.016 | [4] 0.002 | [5] 0.029 | [6] 0.044 | [10] 0.011 | [7] -0.013 | [8] 0.035 | [9] -0.029

POLE (UniProt Q07864)
inactive: [1] -0.038 | [2] -0.023 | [3] -0.097 | [4] -0.033 | [5] 0.006 | [6] -0.094 | [10] 0.005 | [7] 0.025 | [8] -0.089 | [9] 0.034

PLS3 (UniProt P13797)
inactive: [1] -0.013 | [2] -0.051 | [3] 0.004 | [4] -0.151 | [5] 0.036 | [6] 0.097 | [10] -0.011 | [7] -0.008 | [8] 0.032 | [9] 0.082

PLSCR1 (UniProt O15162)
inactive: [1] -0.029 | [2] -0.038 | [3] 0.028 | [4] -0.087 | [5] 0.01 | [6] 0.121 | [10] -0.068 | [7] 0.021 | [8] -0.05 | [9] 0.087

PMPCB (UniProt O75439)
inactive: [1] -0.026 | [2] -0.026 | [3] -0.017 | [4] -0.012 | [5] 0.006 | [6] -0.138 | [10] 0.048 | [7] -0.014 | [8] 0.081 | [9] 0

PNPLA8 (UniProt Q9NP80)
inactive: [1] -0.038 | [2] -0.017 | [3] -0.175 | [4] 0.066 | [5] -0.037 | [6] 0.076 | [10] 0.071 | [7] 0.072 | [8] -0.155 | [9] 0.147

PMPCA (UniProt Q10713)
inactive: [1] -0.02 | [2] -0.043 | [3] -0.048 | [4] -0.053 | [5] 0.053 | [6] -0.004 | [10] 0.016 | [7] 0.079 | [8] 0.046 | [9] 0.025

POLR3K (UniProt Q9Y2Y1)
inactive: [1] -0.026 | [2] -0.048 | [3] -0.037 | [4] -0.021 | [5] 0.058 | [6] 0.063 | [10] 0.013 | [7] 0.006 | [8] 0.046 | [9] 0.028

POLR2E (UniProt P19388)
inactive: [1] -0.027 | [2] 0.03 | [3] 0 | [4] 0.004 | [5] -0.019 | [6] -0.034 | [10] 0.004 | [7] -0.041 | [8] -0.059 | [9] 0.029

PML isoform 11 (UniProt P29590)
inactive: [4] -0.019 | [5] 0.024 | [6] 0.071 | [10] 0.116 | [9] 0.11

PODXL (UniProt O00592)
inactive: [4] 0.024 | [6] 0.207 | [9] -0.164

PNMT (UniProt P11086)
inactive: [1] -0.08 | [3] -0.547 | [7] -0.172

POSTN (UniProt Q15063)
inactive: [2] 0.002 | [3] -0.065 | [4] 0.011 | [6] 0.076 | [10] -0.07 | [7] 0.007 | [8] -0.115 | [9] -0.154

— the supplement of paper PMC10849652
